Reference: PubChem BioAssay AID256 (DTP/NCI, 2004)
The list shows only some results of the screen, not a fair sample: it is rich in T/C values a quarter to a half above the control, in often repeated tests (any T/C) and in doses without a T/C. Further doses and runs are listed elsewhere. T/C gives the treated animals as a percentage of the vehicle group. Some doses have a count of surviving animals in place of a T/C: the source files T/C as zero there, which appears to mark a toxic dose or a test without result, not a measured value. Some survivor counts are full or nearly so, which does not show that the dose was tolerated: survival well below the control is almost never listed, so the zero probably covers shortened survival too. Survivors were counted at the toxicity check, usually on the fifth day, unless a day is given; later deaths do not show. Schedule codes are those of the source, taken here to give the interval after Q, in days (D) or hours (H), and the number of doses after X. Where survival is the endpoint, the PubChem record calls one and a half times the control and up active, and a quarter to a half above the control has no call in these data; cut-offs in other NCI protocols can differ. Some entries hold several experiments; the values are given in rising order.

Tested on: CD2F1 mice, L1210 leukemia ip, survival T/C
Test: NCI In Vivo Anticancer Drug Screen. Data for tumor model L1210 Leukemia (intraperitoneal) in CD2F1 (CDF1) mice
Details: higher T/C = longer survival
Method in brief: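 Ratio T/C, where T is the treated-group value and C the vehicle-dosed control value, from mice implanted with a transplantable tumor.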

[1] = T/C endpoint: mean survival time, dose: 400.0 mg/kg/injection, schedule: Q04DX003 (ip), vehicle: saline with Tween-80
[2] = T/C endpoint: mean survival time, dose: 200.0 mg/kg/injection, schedule: Q01DX001 (ip), vehicle: saline with Tween-80
[3] = T/C endpoint: mean survival time, dose: 200.0 mg/kg/injection, schedule: Q04DX003 (ip), vehicle: saline with Tween-80
[4] = T/C endpoint: mean survival time, dose: 300.0 mg/kg/injection, schedule: Q01DX001 (ip), vehicle: saline
[5] = T/C endpoint: mean survival time, dose: 100.0 mg/kg/injection, schedule: Q04DX002 (ip), vehicle: saline with Tween-80
[6] = T/C endpoint: mean survival time, dose: 100.0 mg/kg/injection, schedule: Q01DX009 (ip), vehicle: saline
[7] = T/C endpoint: mean survival time, dose: 400.0 mg/kg/injection, schedule: Q01DX009 (ip), vehicle: saline
[8] = T/C endpoint: mean survival time, dose: 200.0 mg/kg/injection, schedule: Q01DX009 (ip), vehicle: saline

In the case of `CSc1ncnc2c1ncn2C1OC(CO)C(O)C1O` (stereo not given), the T/C (T/C endpoint: mean survival time, dose: 6.25 mg/kg/injection, schedule: Q01DX009 (ip), vehicle: saline) is reported as 125 % of control, the T/C (T/C endpoint: mean survival time, dose: 8.0 mg/kg/injection, schedule: Q01DX009 (ip), vehicle: saline) is reported as 128 % of control and the T/C (T/C endpoint: mean survival time, dose: 10.0 mg/kg/injection, schedule: Q01DX005 (ip), vehicle: saline) is reported as 125 and 136 % of control. For the same compound, the T/C (T/C endpoint: mean survival time, dose: 16.0 mg/kg/injection, schedule: Q01DX009 (ip), vehicle: saline) was 146 % of control, the T/C (T/C endpoint: mean survival time, dose: 20.0 mg/kg/injection, schedule: Q01DX005 (ip), vehicle: saline) was 138 % of control and the T/C (T/C endpoint: mean survival time, dose: 20.0 mg/kg/injection, schedule: Q01DX007 (ip), vehicle: saline) was 132 % of control. The T/C (T/C endpoint: mean survival time, dose: 20.0 mg/kg/injection, schedule: Q01DX009 (ip), vehicle: saline) was 127 % of control, the T/C (T/C endpoint: mean survival time, dose: 20.0 mg/kg/injection, schedule: Q03DX003 (ip), vehicle: saline) was 128 % of control and the T/C (T/C endpoint: mean survival time, dose: 25.0 mg/kg/injection, schedule: Q01DX009 (ip), vehicle: saline) was 137 % of control. The T/C (T/C endpoint: mean survival time, dose: 50.0 mg/kg/injection, schedule: Q01DX001 (ip), vehicle: saline) was 128 % of control, the survivor count (T/C endpoint: mean survival time, dose: 80.0 mg/kg/injection, schedule: Q01DX005 (ip), vehicle: saline) was 5 of 8 and the T/C (T/C endpoint: mean survival time, dose: 100.0 mg/kg/injection, schedule: Q01DX001 (ip), vehicle: saline) was 142 % of control. The T/C (T/C endpoint: mean survival time, dose: 200.0 mg/kg/injection, schedule: Q01DX001 (ip), vehicle: saline) was 132 % of control, the T/C (T/C endpoint: median survival time, dose: 18.0 mg/kg/injection, schedule: Q01DX009 (ip), vehicle: saline) was 149 % of control and the T/C (T/C endpoint: median survival time, dose: 35.0 mg/kg/injection, schedule: Q01DX009 (ip), vehicle: saline) was 134 % of control. The T/C (T/C endpoint: median survival time, dose: 40.0 mg/kg/injection, schedule: Q01DX009 (ip), vehicle: saline, evaluated on day 5) was 114 and 146 % of control, the T/C (T/C endpoint: median survival time, dose: 40.0 mg/kg/injection, schedule: Q01DX009 (ip), vehicle: saline, evaluated on day 30) was 112 and 122 % of control and the T/C (T/C endpoint: median survival time, dose: 82.0 mg/kg/injection, schedule: Q01DX001 (ip), vehicle: saline with Tween-80) was 128 % of control. For the same compound, the T/C (T/C endpoint: median survival time, dose: 82.0 mg/kg/injection, schedule: Q01DX001 (ip), vehicle: saline) was 140 % of control and the T/C (T/C endpoint: median survival time, dose: 123.0 mg/kg/injection, schedule: Q01DX001 (ip), vehicle: saline with Tween-80) was 141 % of control.
`ClCc1c2c(cc3c1CCCC3)CCCC2` was tested, and the survivor count [1] was 5 of 6.
With `CC(=O)OC1(/N=[N+](/C)[O-])CCCC1` the T/C (T/C endpoint: mean survival time, dose: 50.0 mg/kg/injection, schedule: Q01DX001 (ip), vehicle: saline with Tween-80) was 130 % of control, the T/C (T/C endpoint: mean survival time, dose: 100.0 mg/kg/injection, schedule: Q01DX001 (ip), vehicle: saline with Tween-80) was 148 % of control and the survivor count [2] was 5 of 6. The survivor count [3] was 5 of 6.
For `C/C(=N\NC(N)=S)c1ccc2cc3c(cc2c1)OCO3`, the survivor count (T/C endpoint: mean survival time, dose: 150.0 mg/kg/injection, schedule: Q01DX001 (ip), vehicle: saline) was 0 of 6 and the survivor count [4] was 0 of 6.
In the case of `CCCCN1CCNCC1`, the survivor count (T/C endpoint: mean survival time, dose: 400.0 mg/kg/injection, schedule: Q04DX003 (ip), vehicle: saline) is reported as 0 of 6.
For `Cc1cc2nc3c(=O)[nH]c(=O)nc-3n(CC(O)C(O)C(O)C(O)CO)c2cc1C` (stereo not given), the survivor count (T/C endpoint: mean survival time, dose: 800.0 mg/kg/injection, schedule: Q01DX009 (ip), vehicle: suspension in saline) was 3 of 6.
`Cc1ccc(Nc2nc(N)nc3c2ncn3C2OC(CO)C(O)C2O)cc1` (stereo not given) was tested, and the survivor count (T/C endpoint: mean survival time, dose: 200.0 mg/kg/injection, schedule: Q01DX005 (ip), vehicle: distilled water + Tween-80) was 1 of 6.
For `Cc1[nH]c2ccc(N=CN(C)C)cc2c1C`, the survivor count [5] was 1 of 3.
For `COc1ccc(CCN)cc1OC`, the survivor count [1] was 0 of 6.
In the case of `CC(C)(C)C1(C#N)C(=O)C2CCCCC21` (stereo not given), the survivor count [5] is reported as 1 of 3, the survivor count (T/C endpoint: mean survival time, dose: 200.0 mg/kg/injection, schedule: Q04DX002 (ip), vehicle: saline with Tween-80) is reported as 0 of 3 and the survivor count (T/C endpoint: mean survival time, dose: 400.0 mg/kg/injection, schedule: Q04DX002 (ip), vehicle: saline with Tween-80) is reported as 0 of 3.
For `Cc1cn(C2CC(O)C(CO)O2)c(=O)[nH]c1=O` (stereo not given), the survivor count [6] was 5 of 6 and the survivor count [7] was 6 of 6.
With `C#CCNC1=C(C)C(=O)C2=C(C1=O)[C@H](COC(N)=O)[C@]1(OC)[C@@H]3N[C@@H]3CN21` the T/C (T/C endpoint: mean survival time, dose: 6.0 mg/kg/injection, schedule: Q01DX001 (ip), vehicle: distilled water + Tween-80) was 130 % of control, the T/C (T/C endpoint: mean survival time, dose: 12.0 mg/kg/injection, schedule: Q01DX001 (ip), vehicle: distilled water + Tween-80) was 130 and 146 % of control and the T/C (T/C endpoint: mean survival time, dose: 24.0 mg/kg/injection, schedule: Q01DX001 (ip), vehicle: distilled water + Tween-80) was 147 % of control. The T/C (T/C endpoint: median survival time, dose: 1.5 mg/kg/injection, schedule: Q01DX009 (ip), vehicle: distilled water + Tween-80) was 139 % of control, the T/C (T/C endpoint: median survival time, dose: 3.0 mg/kg/injection, schedule: Q01DX009 (ip), vehicle: distilled water + Tween-80) was 139 % of control and the T/C (T/C endpoint: median survival time, dose: 12.0 mg/kg/injection, schedule: Q01DX009 (ip), vehicle: distilled water + Tween-80) was 129 % of control. For the same compound, the survivor count (T/C endpoint: median survival time, dose: 24.0 mg/kg/injection, schedule: Q01DX009 (ip), vehicle: distilled water + Tween-80) was 6 of 6, the survivor count (T/C endpoint: median survival time, dose: 50.0 mg/kg/injection, schedule: Q01DX009 (ip), vehicle: distilled water + Tween-80) was 0 of 6 and the survivor count (T/C endpoint: median survival time, dose: 100.0 mg/kg/injection, schedule: Q01DX009 (ip), vehicle: distilled water + Tween-80) was 0 of 6.
With `CSC(=NC#N)N(C)C` the survivor count (T/C endpoint: mean survival time, dose: 100.0 mg/kg/injection, schedule: Q04DX003 (ip), vehicle: saline sonified) was 3 of 6, the survivor count [2] was 0 of 6 and the survivor count (T/C endpoint: mean survival time, dose: 400.0 mg/kg/injection, schedule: Q01DX001 (ip), vehicle: saline with Tween-80) was 0 of 6.
For `O=C(OC1C=CC2CCC1C2)c1ccc([N+](=O)[O-])cc1` (stereo not given), the survivor count [1] was 6 of 6.
`Cc1c(N)cc([N+](=O)[O-])c(C)c1[N+](=O)[O-]` was tested, and the survivor count [1] was 3 of 6.
With `CC1(C)CC(N2CCCOP2(=O)N(CCCl)CCCl)CC(C)(C)N1` (stereo not given) the survivor count (T/C endpoint: mean survival time, dose: 500.0 mg/kg/injection, schedule: Q01DX001 (ip), vehicle: water) was 3 of 6.
For `CN(C)CCC(C#N)(c1ccccc1)c1ccccc1`, the survivor count [4] was 0 of 6.
For `Cn1cnc([N+](=O)[O-])c1Sc1ncn[nH]1`, the survivor count (T/C endpoint: mean survival time, dose: 200.0 mg/kg/injection, schedule: Q01DX009 (ip), vehicle: suspension in saline) was 3 of 6 and the survivor count (T/C endpoint: mean survival time, dose: 400.0 mg/kg/injection, schedule: Q01DX009 (ip), vehicle: suspension in saline) was 2 of 6.
`CCCCCCCCCCC(=O)N1CCOCC1` was tested, and the survivor count (T/C endpoint: mean survival time, dose: 200.0 mg/kg/injection, schedule: Q01DX009 (ip), vehicle: saline with Tween-80) was 1 of 6.
For `NC(N)=N/N=C(/c1ccccc1)c1ccc(F)cc1`, the survivor count [6] was 4 of 6, the survivor count [8] was 0 of 6 and the survivor count [7] was 0 of 6.
`CC1=NN(c2ccc(S(=O)(=O)O)cc2)C(=O)C1` was tested, and the survivor count (T/C endpoint: mean survival time, dose: 400.0 mg/kg/injection, schedule: Q01DX009 (ip), vehicle: saline with Tween-80) was 1 of 6.
For `COC(=O)[C@@H]1[C@@H](O)[C@H](OC(=O)c2cc(OC)c(OC)c(OC)c2)C[C@@H]2CN3CCc4c([nH]c5ccccc45)[C@H]3C[C@@H]21`, the survivor count (T/C endpoint: mean survival time, dose: 12.5 mg/kg/injection, schedule: Q01DX009 (ip), vehicle: saline with Tween-80) was 6 of 6, the survivor count (T/C endpoint: mean survival time, dose: 25.0 mg/kg/injection, schedule: Q01DX009 (ip), vehicle: saline with Tween-80) was 2 of 6 and the survivor count (T/C endpoint: mean survival time, dose: 50.0 mg/kg/injection, schedule: Q01DX009 (ip), vehicle: saline with Tween-80) was 0 of 6. The survivor count (T/C endpoint: mean survival time, dose: 100.0 mg/kg/injection, schedule: Q04DX003 (ip), vehicle: saline with Tween-80) was 2 of 6, the survivor count [3] was 4 of 6 and the survivor count [1] was 0 of 6.
In the case of `CC(C)(SC(c1ccccc1)(c1ccccc1)c1ccccc1)C(N)C(=O)O` (stereo not given), the survivor count [6] is reported as 0 of 6, the survivor count [8] is reported as 0 of 6 and the survivor count (T/C endpoint: mean survival time, dose: 300.0 mg/kg/injection, schedule: Q01DX009 (ip), vehicle: saline) is reported as 0 of 6. The survivor count [7] was 0 of 6.
